Assay results published in PMC5996148.
Several values for one entry are separate records, joined by “and”; a condition that tells them apart may be missing. Identical values can stand only once. The list shows a part of the results. For some assays here: Construct or isoform of the protein are uncertain.

What was measured:
Experiment in all cases: protein microarray (ProtoArray v5.0), streptavidin-Alexa Fluor 647
Details in all cases: 3'-biotin; 20 mM Tris (pH 7.5), 5 mM MgCl2, 100 mM KCl, 0.1% Tween-20, A/T-rich and random oligonucleotide blockers; temperature not stated; high values mean tight binding
FAM131C (human) = test system: FAM131C (human)
FAM136A (human) = test system: FAM136A (human)
FAM26A (human) = test system: FAM26A (human)
FAM3A (human) = test system: FAM3A (human)
FAM44B (human) = test system: FAM44B (human)
FAM80A (human) = test system: FAM80A (human)
FAM82C (human) = test system: FAM82C (human)
FAM9C (human) = test system: FAM9C (human)
FANCG (human) = test system: FANCG (human)
FANCI (human) = test system: FANCI (human)
FANCM = FANCM (UniProt Q8IYD8)
FAU = FAU (UniProt P62861)
FBXL16 = biological target: T1, FBXL16 (UniProt Q8N461)
T1 sequence: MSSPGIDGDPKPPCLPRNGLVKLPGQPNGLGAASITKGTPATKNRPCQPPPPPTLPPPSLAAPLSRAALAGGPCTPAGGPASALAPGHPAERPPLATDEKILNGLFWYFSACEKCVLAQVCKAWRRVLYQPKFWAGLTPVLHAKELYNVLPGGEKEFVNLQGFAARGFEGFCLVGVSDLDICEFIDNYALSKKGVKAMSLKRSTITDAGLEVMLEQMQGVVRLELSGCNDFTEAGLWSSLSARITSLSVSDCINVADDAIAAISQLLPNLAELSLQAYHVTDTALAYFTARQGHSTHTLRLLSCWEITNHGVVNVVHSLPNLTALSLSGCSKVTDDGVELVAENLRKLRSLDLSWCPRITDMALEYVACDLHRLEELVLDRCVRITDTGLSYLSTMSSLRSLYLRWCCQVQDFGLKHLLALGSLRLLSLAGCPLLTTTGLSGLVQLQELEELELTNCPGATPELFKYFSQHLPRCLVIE

FBXO36 = biological target: T2, FBXO36 (UniProt Q8NEA4)
T2 sequence: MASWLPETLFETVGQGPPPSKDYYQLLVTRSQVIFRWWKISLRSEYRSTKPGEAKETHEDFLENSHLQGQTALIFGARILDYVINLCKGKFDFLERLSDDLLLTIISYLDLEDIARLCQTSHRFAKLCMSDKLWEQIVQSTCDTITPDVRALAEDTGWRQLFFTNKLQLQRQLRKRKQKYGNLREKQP

FBXO4 (human) = test system: FBXO4 (human)
FBXO6 (human) = test system: FBXO6 (human)
FCGR3A (human) = test system: FCGR3A (human)
FCRL2 (human) = test system: FCRL2 (human)
FDFT1 (human) = test system: FDFT1 (human)
FGF12 = FGF12 (UniProt P61328)

For “GGGGACAGGGGTATGGGGAGGGG [G4-3 biotinylated (CtG)]”, the binding signal (FAM131C (human)) was -0.325 z-score, the binding signal (FAM136A (human)) was -0.328 z-score and the binding signal (FAM26A (human)) was -0.329 z-score. The binding signal (FAM3A (human)) was -0.332 z-score, the binding signal (FAM44B (human)) was -0.349 z-score and the binding signal (FAM80A (human)) was -0.32 z-score. It also gave a binding signal (FAM82C (human)) of -0.325 z-score, a binding signal (FAM9C (human)) of -0.308 z-score and a binding signal (FANCG (human)) of -0.332 z-score. The binding signal (FANCI (human)) was -0.343 z-score, the binding signal (FANCM) was 4.36 z-score and the binding signal (FAU) was 8.88 z-score. The binding signal (FBXL16) was -0.312 z-score, the binding signal (FBXO36) was -0.313 z-score and the binding signal (FBXO4 (human)) was -0.333 z-score. For the same sequence, the binding signal (FBXO6 (human)) was -0.316 z-score, the binding signal (FCGR3A (human)) was -0.319 z-score and the binding signal (FCRL2 (human)) was -0.311 z-score. The binding signal (FDFT1 (human)) was -0.339 z-score and the binding signal (FGF12) was 8.02 z-score and 8.31 z-score.
